Two substances from paper PMC9107693 can be followed below.

Protein sequences, listed by entry. Tags and fused reporters are not part of them.
UniProt Q6PDQ2: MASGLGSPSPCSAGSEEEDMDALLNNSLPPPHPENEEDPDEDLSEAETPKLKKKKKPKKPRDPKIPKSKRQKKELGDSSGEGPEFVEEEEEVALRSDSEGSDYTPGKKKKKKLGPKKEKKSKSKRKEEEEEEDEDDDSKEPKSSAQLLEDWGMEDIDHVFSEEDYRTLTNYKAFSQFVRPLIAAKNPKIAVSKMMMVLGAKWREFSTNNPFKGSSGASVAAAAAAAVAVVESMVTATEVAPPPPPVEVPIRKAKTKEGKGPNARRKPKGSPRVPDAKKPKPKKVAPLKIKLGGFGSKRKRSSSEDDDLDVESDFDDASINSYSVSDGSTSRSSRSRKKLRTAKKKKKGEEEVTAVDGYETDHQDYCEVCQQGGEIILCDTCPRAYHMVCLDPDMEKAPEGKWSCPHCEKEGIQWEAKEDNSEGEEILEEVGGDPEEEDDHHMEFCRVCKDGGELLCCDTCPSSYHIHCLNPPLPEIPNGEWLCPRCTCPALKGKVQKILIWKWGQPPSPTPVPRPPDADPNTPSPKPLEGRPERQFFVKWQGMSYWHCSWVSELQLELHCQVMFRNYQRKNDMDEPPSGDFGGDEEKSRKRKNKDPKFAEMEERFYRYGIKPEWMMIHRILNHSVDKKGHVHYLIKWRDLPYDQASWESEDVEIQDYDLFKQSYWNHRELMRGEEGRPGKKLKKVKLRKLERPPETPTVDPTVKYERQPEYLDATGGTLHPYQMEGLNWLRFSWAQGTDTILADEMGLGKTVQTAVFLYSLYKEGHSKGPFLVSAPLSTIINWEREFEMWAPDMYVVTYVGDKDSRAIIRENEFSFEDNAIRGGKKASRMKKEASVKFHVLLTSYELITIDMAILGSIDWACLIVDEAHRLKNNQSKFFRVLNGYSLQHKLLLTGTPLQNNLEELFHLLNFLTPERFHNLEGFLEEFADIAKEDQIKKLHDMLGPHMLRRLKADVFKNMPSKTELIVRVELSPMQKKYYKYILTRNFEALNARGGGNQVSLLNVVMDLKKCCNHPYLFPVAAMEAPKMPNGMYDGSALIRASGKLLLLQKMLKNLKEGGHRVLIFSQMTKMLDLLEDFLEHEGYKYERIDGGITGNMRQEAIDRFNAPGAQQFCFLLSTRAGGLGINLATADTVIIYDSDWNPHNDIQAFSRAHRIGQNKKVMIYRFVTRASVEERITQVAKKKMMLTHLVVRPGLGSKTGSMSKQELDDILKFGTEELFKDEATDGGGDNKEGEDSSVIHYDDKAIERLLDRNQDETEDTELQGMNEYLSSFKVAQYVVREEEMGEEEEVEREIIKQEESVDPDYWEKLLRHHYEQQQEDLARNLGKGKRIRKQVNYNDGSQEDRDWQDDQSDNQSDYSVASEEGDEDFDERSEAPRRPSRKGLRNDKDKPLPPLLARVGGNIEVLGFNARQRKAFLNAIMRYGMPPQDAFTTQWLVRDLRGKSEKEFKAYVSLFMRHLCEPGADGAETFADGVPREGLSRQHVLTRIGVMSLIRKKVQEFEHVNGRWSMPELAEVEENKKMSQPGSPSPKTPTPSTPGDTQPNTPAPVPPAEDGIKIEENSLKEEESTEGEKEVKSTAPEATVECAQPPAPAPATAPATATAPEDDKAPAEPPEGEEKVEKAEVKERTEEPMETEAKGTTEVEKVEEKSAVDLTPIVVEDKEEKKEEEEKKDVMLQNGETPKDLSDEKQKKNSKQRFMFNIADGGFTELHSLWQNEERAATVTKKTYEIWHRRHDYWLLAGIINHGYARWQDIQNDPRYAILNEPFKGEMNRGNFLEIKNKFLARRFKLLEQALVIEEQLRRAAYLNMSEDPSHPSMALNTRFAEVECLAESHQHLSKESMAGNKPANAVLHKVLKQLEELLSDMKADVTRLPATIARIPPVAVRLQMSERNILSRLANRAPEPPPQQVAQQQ
UniProt P70288: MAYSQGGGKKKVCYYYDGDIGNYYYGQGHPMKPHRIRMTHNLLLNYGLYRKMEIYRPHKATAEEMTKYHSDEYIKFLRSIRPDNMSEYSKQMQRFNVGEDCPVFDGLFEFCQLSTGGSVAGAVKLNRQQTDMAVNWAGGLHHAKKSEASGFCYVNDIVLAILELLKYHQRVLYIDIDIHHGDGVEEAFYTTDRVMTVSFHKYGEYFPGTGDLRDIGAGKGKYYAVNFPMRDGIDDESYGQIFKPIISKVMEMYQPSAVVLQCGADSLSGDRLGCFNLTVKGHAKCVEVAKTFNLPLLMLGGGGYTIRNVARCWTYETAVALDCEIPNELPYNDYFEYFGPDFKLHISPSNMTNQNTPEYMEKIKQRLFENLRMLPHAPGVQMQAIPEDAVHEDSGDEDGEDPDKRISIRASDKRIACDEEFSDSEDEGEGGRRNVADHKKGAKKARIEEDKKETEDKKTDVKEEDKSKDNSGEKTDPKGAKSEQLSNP
UniProt Q8K4B0: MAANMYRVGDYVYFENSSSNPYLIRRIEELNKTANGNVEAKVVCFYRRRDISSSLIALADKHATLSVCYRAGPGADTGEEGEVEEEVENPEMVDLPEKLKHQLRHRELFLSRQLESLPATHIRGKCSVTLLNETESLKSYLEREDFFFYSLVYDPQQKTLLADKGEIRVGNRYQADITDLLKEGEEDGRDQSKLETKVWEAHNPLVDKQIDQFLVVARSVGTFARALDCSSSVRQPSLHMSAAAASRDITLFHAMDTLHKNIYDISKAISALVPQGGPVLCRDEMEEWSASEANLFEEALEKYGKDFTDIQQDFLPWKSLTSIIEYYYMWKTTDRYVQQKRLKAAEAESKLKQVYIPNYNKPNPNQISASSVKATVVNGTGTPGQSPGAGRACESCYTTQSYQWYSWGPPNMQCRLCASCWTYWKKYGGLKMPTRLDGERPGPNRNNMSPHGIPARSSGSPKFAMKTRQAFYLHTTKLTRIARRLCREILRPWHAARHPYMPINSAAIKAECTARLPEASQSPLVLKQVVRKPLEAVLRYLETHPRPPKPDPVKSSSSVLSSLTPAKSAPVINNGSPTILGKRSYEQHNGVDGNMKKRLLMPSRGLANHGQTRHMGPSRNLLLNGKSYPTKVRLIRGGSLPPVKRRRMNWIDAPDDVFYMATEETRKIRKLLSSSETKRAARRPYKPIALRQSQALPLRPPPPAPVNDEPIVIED

Assay [1] addresses Chd4 (chromodomain-helicase-DNA-binding 4) (mouse (endogenous in testis cells)) (UniProt Q6PDQ2). Nature of the assay: co-IP; anti-Chd4 as bait, non-specific IgG as bait control; enriched fractions of Thy1.2 and c-Kit spermatogonia together, and the flow-through; detection by western blot.
Assay [2] shares this target. Nature of the assay: co-IP; anti-Chd4 immunoprecipitation from testis lysates of wild type or ddx4-chd3-/- mice (RIPA buffer, 1 mg protein, protein G magnetic beads); detection by western blot.

These are yes or no findings as the source states them, for the method shown. Binding seen in cells or lysates may run through a third protein. Some results given as binding are weak or reduced against the parent protein; the word gives no strength.

Hdac2a (from UniProt P70288 1-488): the binding entry in assay [1] and in assay [2] was “binds” throughout.

For Mta1 (from UniProt Q8K4B0 1-715), the binding entry in assay [1] was “binds”.
